Source: patent publication US6531462B2, “Medicament for treating obesity and improving lipid metabolism” (priority 1997, dated 2003)

Assays:
Type in all cases: in vivo, CDF1 male mice
[1] = Example 3: dose response of 5-sitosten-3-one on body weight, feed intake, feed efficiency and intraperitoneal fat; conditions: for Feed intake: total throughout the experimental period
Excerpt: 5Sitosten-3-one was synthesized from β-sitosterol (Tokyo Chemical Industry Co., Ltd.) according to the method of Parish (Parish, E. J., et al., Synthetic Communication, 22, pp.2839-2847, 1992), and purified by silica gel column chromatography and recrystallization. The content ratio of 24-ethyl isomer and 24-methyl compounds in the synthesized product was 6.5:3.5. As experimental animals, thirty 4-week old CDF1 male mice were purchased from Charles River Japan Inc. and divided into five experimental groups each composed of six mice. The test compounds were administered as the admixture in feeds, and the following groups were provided: (1) 0.1% addition, (2) 0.3% addition, (3) 0.5% addition, (4) a lipid-free feed without the addition of the test compound, and (5) control group without the addition of the test compound. A purified feed (modified AIN, Oriental Yeast Co.) was used as a basic feed, and supplemented with 10% soybean oil (Wako Pure Chemical Industries Co., Ltd.) to prepare solid feeds with or without the addition of the test compound. The lipid-free feed, per se, was processed to obtain solid feed. The animals were fed for a week with the feed for the control without the addition of test compound for acclimatization, and then the animals were allowed to feed with the respective feed ad libitum.
Each group of animals was housed in an aluminum cages of 22×33×11(h)cm (6 mice per a cage), and feedings were carried out at a temperature of 24±1° C. and a relative humidity of 55±5%, where light and darkness were controlled change every 12 hours. Measurements of body weights and feed intakes, and observations of general conditions were conducted three times a week. After the feeding for 3 week with the test feeds, the animals were subjected to autopsy and their bloods were collected. As serum lipid analyses, triglyceride, phospholipid, free fatty acid, total cholesterol, and HDL-cholesterol were measured by using a clinical test kit (Wako Pure Chemicals Industries Co., Ltd. ). Significances of the resulting values were examined by the variance analysis for the groups treated with the medicament, or by the t-test for the lipid-free feed group.

[2] = Example 1: body weight, body fat and feed intake of mice fed feed supplemented with 0.5% test compound
Description: 5-Sitosten-3-one was prepared according to the method of Parish (Parish, E. J., et al., Synthetic Communication, 22, pp.2839-2847, 1992) by using β-sitosterol (Tokyo Chemical Industry Co., Ltd.) as a starting material and used in the experiments. The content ratio of 24-ethyl and 24-methyl compounds in the synthesized product was 6.5:3.5. As experimental animals, six CDF1 male mice (5-week old, Charles River Japan Inc.) were used in each experimental group. The animals were fed in aluminum cages for mice, and allowed to feed and water ad libitum. The animals were fed for 2 weeks under feeding conditions at a temperature of 24±1° C. and a relative humidity of 55±5%, where light and darkness were controlled to change every 12 hours, and each cage and floor mat (white flakes) were exchanged twice a week.
Modified AIN (Oriental Yeast Co.) was used as basic feed and mixed with 0.5% 5-sitosten-3-one to prepare test feeds. A feed used as a positive control was prepared by adding 0.5% of 4-cholesten-3-one (Japanese Patent Unexamined Publication No. Hei 5-170651/1993) to the basic feed. Non-treated mice as a control were fed solely with the basic feed. The basic feed was composed of 22.8% crude protein, 54.1% carbohydrates, 6.0% lipids, 4.9% fibers, 2.9% ash, and 8.7% water, and its calorie was 1,523 kJ. The feed was stored at 4° C. after preparation, and a fresh feed was supplied every day.
The animals were weighed at given intervals of time, and the average values and standard errors of the experimental groups were determined. In addition, feed consumptions were measured at given intervals of time and daily averages per mouse were determined. The animals were observed every day. After the end of the feeding, the animals were anesthetized to death with carbon dioxide gas, and bloods were collected from the vena cava to obtain serums. The animals were autopsied, and the brains, lungs, hearts, livers, spleens, kidneys, testis, adrenals and intraperitoneal fat were examined by the naked eye and weighed. As to serum lipid, neutral fats were measured by using a clinical test kit based on the enzyme method (Triglyceride-E Test, Wako Pure Chemicals Industries Co., Ltd.), and total cholesterol and cholestanol were measured by the method of Kasama (T. Kasama, et al., J. Chromatogr., 400, 241, 1987) with modifications, where the amount of benzoyl chloride was increased by 10 times, the reaction time was doubled, and the measurement was performed by using a high performance liquid chromatography system. Significant differences were determined by t-test for body weights and serum lipids on the basis of the non-treated control mice.

[3] = Example 2: body weight, feed intake, feed efficiency and intraperitoneal fat of mice fed 0.5% test compound; conditions: 0.5% in feed, total for 14 days
Excerpt: As 24-alkylcholesten-3-ones, (1) 4-sitosten-3-one, (2) 6α-hydroxy-4-sitosten-3-one, and (3) 6-hydroxy-4-sitosten-3-one (α:β=2.6:1) were synthesized by using β-sitosterol (Tokyo Chemical Industries Co., Ltd.). The content ratio of 24-ethyl and 24-methyl compounds in the synthesized product was 6.5:3.5. As experimental animals, six CDF1 male mice (5-week old, Charles River Japan Inc.) were used in each experimental group. A purified feed (Modified AIN, Oriental Yeast Co.) was used as a basic feed and mixed with 0.5% test compounds to prepare test feeds. The animals were allowed to feed and water ad libitum. The animals were weighed and observed to examine general conditions twice a week. The animals were subjected to autopsy after the end of the feeding, and their bloods were collected. Lipid concentrations in the separated serums were measured by using a clinical test kit based on the enzyme method (Wako Pure Chemicals Industries Co., Ltd.). Significances of the resulting experimental values were examined by the variance analysis. The other experimental conditions were the same as in Example 1.

[4] = 0.5% in feed, 2 weeks, daily average per mouse
[5] = ratio relative to the non-treated control group, CDF1 mice

For “5-sitosten-3-one (24-ethylcholest-5-en-3-one)”, the “Feed intake (change)” value ([1]; 0.1% addition group) was “unchanged”, the Feed intake ([1]; 0.1% addition to feed) was 61.56 g/mouse and the “Feed intake (change)” value ([1]; 0.3% addition group) was “slightly decreased”. The Feed intake ([1]; 0.3% addition to feed) was 58.79 g/mouse, the “Decrease of feed intake” value ([1]; 0.5% addition group, in total for 3 weeks) was “about 13%” and the Feed intake ([1]; 0.5% addition to feed) was 53.58 g/mouse. For the same molecule, the Feed intake [2, 4] was 4.43 g/mouse/day, the “Appetite / appetite suppressing effect” value ([2]; CDF1 mice, compound in feed) was “normal except for slight suppression and weak” and the Feed intake [2, 5] was 89%.

Molecule CC(C)CCC[C@@H](C)[C@H]1CC[C@H]2[C@@H]3CCC4=CC(=O)CC[C@]4(C)[C@H]3CC[C@]12C [4-Cholesten-3-one, 4-cholesten-3-one] has a Feed intake [2, 4] of 4.80 g/mouse/day and a Feed intake [2, 5] of 97%.

CC(C)CCC[C@@H](C)[C@H]1CC[C@H]2[C@@H]3CC(=O)C4=CC(=O)CC[C@]4(C)[C@H]3CC[C@]12C [4-Cholestene-3,6-dione] gave a Feed intake [2, 5] of 101%.

CC[C@H](CC[C@@H](C)[C@H]1CC[C@H]2[C@@H]3CCC4=CC(=O)CC[C@]4(C)[C@H]3CC[C@]12C)C(C)C [4-Sitosten-3-one, 4-sitosten-3-one] gave a Feed intake [3] of 42.78 g/mouse.

For CC(C)CCC[C@@H](C)[C@H]1CC[C@H]2[C@@H]3CC[C@@H]4CC(=O)CC[C@]4(C)[C@H]3CC[C@]12C [5 β-Cholestan-3-one, 5β-cholestan-3-one], the Feed intake [2, 5] was 91%.

In the case of CC(C)CCC[C@@H](C)[C@H]1CC[C@H]2[C@@H]3CC=C4CC(=O)CC[C@]4(C)[C@H]3CC[C@]12C [5-Cholesten-3-one], the Feed intake [2, 5] is reported as 61%.

With CC(C)CCC[C@@H](C)[C@H]1CC[C@H]2[C@@H]3C[C@@H](Br)C4=CC(=O)CC[C@]4(C)[C@H]3CC[C@]12C [6 β-Bromo-4-cholesten-3-one, 6β-bromo-4-cholesten-3-one] the Feed intake [2, 5] was 71%.

CC(C)CCC[C@@H](C)[C@H]1CC[C@H]2[C@@H]3CC(O)C4=CC(=O)CC[C@]4(C)[C@H]3CC[C@]12C (some centres unmarked) [6-Hydroxy-4-cholesten-3-one] gave a Feed intake [2, 5] of 96%.

Work on CC[C@H](CC[C@@H](C)[C@H]1CC[C@H]2[C@@H]3CC(O)C4=CC(=O)CC[C@]4(C)[C@H]3CC[C@]12C)C(C)C (stereo partly drawn) [6-Hydroxy-4-sitosten-3-one (α:β = 2.6:1), 6-hydroxy-4-sitosten-3-one (α:β=2.6:1)] yielded a Feed intake [3] of 41.77 g/mouse.

In the case of CC[C@H](CC[C@@H](C)[C@H]1CC[C@H]2[C@@H]3C[C@H](O)C4=CC(=O)CC[C@]4(C)[C@H]3CC[C@]12C)C(C)C [6α-Hydroxy-4-sitosten-3-one, 6α-hydroxy-4-sitosten-3-one], the Feed intake [3] is reported as 39.60 g/mouse.

Molecule CC(C)CCC[C@@H](C)[C@H]1CC[C@H]2[C@@H]3C=CC4=CC(=O)CC[C@]4(C)[C@H]3CC[C@]12C [Colesta-4,6-dien-3-one] has a Feed intake [2, 5] of 79%.
